Laboratory results reported in publication PMC7573169.
No constants are given. Whether binding was seen depends on the method and setting. Binding seen in cells or lysates may run through a third protein. Binding can be weak; no strength is given.

The chains behind the UniProt entries cited, without tags or fusion partners. Where a name states a change or a piece, a line headed by the entry shows the natural chain unless it says otherwise.
UniProt Q99988: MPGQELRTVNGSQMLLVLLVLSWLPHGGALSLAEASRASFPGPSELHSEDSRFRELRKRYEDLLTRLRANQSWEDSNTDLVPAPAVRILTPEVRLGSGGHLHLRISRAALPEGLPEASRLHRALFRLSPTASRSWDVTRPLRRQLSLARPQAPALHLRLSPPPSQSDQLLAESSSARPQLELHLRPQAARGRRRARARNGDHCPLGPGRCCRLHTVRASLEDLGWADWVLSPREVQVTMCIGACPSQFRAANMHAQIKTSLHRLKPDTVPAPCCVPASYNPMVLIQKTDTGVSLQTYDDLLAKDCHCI

Molecular target: T1, sterol regulatory element-binding protein cleavage-activating protein (SCAP) (human (endogenous in esophageal cancer cells)) (UniProt Q12770)
T1 sequence: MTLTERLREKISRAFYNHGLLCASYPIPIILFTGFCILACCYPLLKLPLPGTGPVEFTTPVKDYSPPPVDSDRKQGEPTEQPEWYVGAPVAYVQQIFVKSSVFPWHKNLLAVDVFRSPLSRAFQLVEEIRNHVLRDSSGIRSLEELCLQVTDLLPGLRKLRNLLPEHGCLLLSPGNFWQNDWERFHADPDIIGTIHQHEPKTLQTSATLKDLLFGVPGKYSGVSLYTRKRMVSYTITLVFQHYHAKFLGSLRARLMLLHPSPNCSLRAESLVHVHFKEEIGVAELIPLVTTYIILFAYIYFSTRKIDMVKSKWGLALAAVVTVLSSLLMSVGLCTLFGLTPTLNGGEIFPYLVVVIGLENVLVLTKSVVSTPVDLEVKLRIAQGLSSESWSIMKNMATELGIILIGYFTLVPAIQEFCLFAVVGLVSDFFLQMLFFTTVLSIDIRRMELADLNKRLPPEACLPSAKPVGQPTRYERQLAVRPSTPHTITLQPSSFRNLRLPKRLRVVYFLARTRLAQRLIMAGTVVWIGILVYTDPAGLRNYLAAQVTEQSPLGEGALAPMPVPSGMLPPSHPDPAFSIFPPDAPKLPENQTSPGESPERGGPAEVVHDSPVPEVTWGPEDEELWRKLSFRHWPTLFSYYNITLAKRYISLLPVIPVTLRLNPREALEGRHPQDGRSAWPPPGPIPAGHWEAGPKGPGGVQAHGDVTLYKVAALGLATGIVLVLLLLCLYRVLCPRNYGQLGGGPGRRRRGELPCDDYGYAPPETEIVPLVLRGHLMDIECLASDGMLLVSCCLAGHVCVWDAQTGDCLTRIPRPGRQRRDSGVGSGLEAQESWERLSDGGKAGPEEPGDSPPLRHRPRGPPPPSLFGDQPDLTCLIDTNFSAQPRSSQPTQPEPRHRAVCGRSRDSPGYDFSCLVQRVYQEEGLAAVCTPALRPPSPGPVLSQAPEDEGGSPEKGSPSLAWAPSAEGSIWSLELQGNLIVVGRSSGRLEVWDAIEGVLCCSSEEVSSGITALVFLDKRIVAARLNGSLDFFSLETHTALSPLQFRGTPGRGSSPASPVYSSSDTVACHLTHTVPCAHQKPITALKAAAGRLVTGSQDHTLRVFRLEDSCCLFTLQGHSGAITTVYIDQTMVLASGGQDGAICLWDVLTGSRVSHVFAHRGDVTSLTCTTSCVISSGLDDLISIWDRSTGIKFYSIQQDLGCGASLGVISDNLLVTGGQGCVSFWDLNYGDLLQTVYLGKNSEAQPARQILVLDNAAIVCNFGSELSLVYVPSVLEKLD
Assay: co-IP; cell lysates incubated with antibodies against GDF15 or SCAP at 4°C overnight, then Protein A/G PLUS-Agarose beads for 10 h; 4 washes with lysis buffer; western blot

- binding: binds
Substance: Growth differentiation factor 15 (GDF15) (from UniProt Q99988)
